Reference: the supplement of paper PMC12067093, “Discovery and optimisation of a covalent ligand for TRIM25 and its application to targeted protein ubiquitination” (Chemical Science, 2025)
The list shows a part of the results.

Protein sequences, listed by entry. Tags and fused reporters are not part of them. Lines headed by an entry give the natural chain unless they say otherwise; changes in a name come on top.
UniProt Q9H7D0, whole entry, looked up: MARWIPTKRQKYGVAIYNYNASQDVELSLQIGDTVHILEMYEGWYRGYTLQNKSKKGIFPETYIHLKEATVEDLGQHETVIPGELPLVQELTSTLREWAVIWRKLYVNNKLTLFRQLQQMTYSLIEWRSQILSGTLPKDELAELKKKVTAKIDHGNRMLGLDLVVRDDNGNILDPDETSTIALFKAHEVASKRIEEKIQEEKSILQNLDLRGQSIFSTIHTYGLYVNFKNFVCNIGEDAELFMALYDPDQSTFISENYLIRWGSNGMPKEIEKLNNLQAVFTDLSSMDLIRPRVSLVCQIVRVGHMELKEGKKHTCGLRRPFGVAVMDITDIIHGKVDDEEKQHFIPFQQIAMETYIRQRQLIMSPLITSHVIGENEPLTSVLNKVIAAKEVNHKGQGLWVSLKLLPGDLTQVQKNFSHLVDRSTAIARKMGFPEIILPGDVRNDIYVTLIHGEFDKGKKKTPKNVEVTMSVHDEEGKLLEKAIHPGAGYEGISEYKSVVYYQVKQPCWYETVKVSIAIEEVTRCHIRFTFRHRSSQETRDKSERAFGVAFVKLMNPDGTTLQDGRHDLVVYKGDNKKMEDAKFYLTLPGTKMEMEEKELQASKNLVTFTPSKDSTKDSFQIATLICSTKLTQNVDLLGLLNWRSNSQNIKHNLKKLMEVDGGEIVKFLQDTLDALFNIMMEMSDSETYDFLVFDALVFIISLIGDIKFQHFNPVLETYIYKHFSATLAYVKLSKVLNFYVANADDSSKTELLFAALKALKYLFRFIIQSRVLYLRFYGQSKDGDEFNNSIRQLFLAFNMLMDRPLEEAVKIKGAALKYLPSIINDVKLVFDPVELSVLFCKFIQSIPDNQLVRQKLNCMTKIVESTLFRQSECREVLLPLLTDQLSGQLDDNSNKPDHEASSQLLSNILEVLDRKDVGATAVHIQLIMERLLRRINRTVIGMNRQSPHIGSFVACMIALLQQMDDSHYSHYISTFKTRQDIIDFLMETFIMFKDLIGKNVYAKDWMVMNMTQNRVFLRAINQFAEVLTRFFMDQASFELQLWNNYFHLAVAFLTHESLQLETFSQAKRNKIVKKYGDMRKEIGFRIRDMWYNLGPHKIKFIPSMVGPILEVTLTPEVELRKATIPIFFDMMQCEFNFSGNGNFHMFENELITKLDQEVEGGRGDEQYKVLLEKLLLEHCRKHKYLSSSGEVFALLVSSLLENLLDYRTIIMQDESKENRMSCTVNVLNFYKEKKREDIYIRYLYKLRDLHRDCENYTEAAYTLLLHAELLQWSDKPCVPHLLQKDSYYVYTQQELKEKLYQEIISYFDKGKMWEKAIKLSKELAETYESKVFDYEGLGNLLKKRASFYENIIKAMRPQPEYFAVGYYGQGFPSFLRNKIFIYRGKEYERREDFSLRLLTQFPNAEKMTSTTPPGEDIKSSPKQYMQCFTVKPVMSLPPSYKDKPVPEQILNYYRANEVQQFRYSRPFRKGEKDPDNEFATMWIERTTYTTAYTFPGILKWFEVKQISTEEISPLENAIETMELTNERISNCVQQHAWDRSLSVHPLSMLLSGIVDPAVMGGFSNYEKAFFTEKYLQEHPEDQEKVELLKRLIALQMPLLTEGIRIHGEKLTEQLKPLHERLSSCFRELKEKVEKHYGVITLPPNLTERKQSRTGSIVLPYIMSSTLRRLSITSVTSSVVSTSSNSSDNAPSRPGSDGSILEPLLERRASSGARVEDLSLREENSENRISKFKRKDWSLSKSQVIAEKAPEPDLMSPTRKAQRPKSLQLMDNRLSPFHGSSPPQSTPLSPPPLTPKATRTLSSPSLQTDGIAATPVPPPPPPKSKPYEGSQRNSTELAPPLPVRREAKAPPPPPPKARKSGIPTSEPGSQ
UniProt Q99704: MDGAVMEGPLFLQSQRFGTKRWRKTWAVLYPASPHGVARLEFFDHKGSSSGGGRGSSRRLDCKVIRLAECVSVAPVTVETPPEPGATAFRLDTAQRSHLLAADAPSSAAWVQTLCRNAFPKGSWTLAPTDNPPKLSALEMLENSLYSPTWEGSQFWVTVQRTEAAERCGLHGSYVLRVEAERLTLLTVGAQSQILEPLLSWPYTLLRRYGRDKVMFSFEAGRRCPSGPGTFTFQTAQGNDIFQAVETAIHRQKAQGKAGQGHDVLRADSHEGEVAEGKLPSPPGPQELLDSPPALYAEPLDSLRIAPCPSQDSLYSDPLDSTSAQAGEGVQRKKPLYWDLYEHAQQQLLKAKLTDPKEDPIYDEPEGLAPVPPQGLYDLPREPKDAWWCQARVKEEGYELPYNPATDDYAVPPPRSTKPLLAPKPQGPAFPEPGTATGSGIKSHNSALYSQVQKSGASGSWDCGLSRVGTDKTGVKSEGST
UniProt Q86TI2: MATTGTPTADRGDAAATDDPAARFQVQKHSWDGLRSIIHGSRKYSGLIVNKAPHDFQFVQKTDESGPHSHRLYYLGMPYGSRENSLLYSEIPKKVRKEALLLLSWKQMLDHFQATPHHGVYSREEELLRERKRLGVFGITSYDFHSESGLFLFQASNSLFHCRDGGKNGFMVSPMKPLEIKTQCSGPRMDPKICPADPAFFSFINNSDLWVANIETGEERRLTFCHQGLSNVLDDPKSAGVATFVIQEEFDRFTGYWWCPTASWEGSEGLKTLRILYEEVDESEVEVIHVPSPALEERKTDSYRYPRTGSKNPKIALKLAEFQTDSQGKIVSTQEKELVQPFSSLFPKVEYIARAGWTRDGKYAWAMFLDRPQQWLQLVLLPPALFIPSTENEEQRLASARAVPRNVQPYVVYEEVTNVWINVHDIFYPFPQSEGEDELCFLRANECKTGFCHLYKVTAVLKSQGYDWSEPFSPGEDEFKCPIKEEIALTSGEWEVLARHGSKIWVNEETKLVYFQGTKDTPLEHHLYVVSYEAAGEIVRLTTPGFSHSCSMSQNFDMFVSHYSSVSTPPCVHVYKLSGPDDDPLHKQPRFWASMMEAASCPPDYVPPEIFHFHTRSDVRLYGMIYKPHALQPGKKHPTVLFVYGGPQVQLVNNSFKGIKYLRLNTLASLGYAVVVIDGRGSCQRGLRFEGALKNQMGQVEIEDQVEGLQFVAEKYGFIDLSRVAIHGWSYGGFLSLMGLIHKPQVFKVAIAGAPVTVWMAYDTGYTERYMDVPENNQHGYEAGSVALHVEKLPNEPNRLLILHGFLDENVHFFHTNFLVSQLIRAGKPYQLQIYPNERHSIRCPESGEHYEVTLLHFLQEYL
UniProt Q8NF50: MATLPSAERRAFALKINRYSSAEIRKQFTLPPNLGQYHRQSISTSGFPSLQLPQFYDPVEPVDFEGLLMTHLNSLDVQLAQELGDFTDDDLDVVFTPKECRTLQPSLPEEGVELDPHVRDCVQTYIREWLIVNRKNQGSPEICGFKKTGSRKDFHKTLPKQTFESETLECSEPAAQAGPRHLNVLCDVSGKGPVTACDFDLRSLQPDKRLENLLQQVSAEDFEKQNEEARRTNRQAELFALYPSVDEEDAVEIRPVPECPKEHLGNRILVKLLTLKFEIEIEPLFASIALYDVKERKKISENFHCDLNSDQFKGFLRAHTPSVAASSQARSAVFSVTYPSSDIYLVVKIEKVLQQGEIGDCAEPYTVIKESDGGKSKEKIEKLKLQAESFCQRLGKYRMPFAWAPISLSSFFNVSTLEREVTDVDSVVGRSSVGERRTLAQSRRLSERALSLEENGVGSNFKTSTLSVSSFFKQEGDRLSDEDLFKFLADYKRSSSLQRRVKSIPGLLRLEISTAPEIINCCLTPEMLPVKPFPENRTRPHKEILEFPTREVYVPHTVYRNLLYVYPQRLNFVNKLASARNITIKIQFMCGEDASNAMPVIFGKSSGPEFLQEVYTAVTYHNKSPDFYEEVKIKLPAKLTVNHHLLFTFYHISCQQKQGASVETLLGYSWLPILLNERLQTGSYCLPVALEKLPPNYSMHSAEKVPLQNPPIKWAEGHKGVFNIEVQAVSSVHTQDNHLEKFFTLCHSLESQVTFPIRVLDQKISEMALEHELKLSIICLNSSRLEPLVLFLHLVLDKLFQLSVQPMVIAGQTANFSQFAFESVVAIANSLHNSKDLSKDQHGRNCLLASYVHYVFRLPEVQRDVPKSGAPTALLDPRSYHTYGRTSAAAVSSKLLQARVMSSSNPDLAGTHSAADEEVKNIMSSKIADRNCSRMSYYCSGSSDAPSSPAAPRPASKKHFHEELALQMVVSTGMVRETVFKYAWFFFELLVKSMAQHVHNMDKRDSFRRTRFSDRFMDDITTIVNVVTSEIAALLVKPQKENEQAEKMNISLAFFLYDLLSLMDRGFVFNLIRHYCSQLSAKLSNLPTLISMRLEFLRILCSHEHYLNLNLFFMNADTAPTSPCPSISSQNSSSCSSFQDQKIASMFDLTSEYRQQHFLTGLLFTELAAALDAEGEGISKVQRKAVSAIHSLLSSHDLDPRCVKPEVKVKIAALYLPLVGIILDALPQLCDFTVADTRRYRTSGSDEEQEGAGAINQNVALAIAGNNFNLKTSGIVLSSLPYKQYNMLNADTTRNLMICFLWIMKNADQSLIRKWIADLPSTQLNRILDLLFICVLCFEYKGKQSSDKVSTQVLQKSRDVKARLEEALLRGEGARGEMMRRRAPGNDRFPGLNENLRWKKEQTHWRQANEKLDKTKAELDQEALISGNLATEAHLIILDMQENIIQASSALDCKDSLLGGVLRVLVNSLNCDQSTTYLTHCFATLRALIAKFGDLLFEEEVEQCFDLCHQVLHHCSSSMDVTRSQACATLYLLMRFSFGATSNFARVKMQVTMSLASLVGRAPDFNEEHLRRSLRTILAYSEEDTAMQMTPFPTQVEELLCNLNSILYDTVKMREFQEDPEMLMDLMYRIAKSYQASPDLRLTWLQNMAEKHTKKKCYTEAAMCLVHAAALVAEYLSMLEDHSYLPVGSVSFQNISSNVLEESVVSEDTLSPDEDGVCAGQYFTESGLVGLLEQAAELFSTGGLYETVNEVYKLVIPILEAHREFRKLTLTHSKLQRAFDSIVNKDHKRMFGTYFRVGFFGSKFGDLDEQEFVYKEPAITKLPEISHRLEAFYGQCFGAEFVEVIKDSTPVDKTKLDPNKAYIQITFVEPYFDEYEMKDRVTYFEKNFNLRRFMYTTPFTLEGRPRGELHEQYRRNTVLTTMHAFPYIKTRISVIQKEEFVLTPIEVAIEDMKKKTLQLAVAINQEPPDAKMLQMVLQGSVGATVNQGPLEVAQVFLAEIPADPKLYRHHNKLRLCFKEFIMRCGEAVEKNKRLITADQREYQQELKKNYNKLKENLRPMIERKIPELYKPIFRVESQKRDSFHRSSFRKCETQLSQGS
UniProt Q7L591: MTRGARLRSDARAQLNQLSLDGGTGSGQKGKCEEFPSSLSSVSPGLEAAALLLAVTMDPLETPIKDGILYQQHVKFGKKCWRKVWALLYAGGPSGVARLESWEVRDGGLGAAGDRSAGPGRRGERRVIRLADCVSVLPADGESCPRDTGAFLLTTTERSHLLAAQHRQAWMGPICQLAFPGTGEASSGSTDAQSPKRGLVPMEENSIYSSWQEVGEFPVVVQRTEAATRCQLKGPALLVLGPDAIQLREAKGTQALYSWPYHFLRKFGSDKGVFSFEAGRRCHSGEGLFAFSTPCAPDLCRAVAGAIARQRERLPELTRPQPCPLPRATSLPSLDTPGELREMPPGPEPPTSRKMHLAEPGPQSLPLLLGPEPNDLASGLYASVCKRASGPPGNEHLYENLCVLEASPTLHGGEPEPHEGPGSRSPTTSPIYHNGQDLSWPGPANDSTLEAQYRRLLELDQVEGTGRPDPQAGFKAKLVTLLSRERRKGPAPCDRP
UniProt Q8WTR2: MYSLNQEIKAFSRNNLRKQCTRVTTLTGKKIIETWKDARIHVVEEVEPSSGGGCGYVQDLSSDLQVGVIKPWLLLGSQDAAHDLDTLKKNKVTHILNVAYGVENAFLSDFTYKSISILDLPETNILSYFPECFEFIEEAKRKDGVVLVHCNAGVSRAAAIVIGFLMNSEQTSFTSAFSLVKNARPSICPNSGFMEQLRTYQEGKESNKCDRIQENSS
UniProt Q9BTV6: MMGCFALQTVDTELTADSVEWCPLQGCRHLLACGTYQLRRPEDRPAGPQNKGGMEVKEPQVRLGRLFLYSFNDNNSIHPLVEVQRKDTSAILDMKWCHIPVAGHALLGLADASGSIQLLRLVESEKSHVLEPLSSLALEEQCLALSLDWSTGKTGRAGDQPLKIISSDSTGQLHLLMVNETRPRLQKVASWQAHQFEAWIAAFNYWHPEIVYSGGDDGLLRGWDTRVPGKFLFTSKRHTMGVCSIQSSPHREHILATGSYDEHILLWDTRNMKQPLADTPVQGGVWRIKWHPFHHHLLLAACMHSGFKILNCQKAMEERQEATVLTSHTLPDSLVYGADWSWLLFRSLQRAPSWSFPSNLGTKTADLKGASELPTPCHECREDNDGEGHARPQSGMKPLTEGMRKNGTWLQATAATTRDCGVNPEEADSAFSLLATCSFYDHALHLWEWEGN

Compound: Cc1cc(ccc1-c1ccccc1)C(=O)N1CCCN(CC1)C(=O)CCl [compound 10]
Experiment: probe-labelled cysteine peptide fold change vs DMSO (competition) (log2 fold change); higher = less target engagement (more negative = stronger competition)
Details: THP-1, incubation time: 4 h
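Also: competitive profiling in live THP-1 cells: cysteine peptides tagged with an iodoacetamide desthiobiotin (IA-DTB) probe, intensity after compound treatment relative to DMSO-treated cells.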

Target | probe-labelled cysteine peptide fold change (10 µM) | probe-labelled cysteine peptide fold change (50 µM)
DYNC1H1_Q14204_4438_QDLADVVQVCEGKK (UniProt Q14204) | 0.0575 | 0.0503
DOCK5_Q9H7D0_627_DSFQIATLICSTK (UniProt Q9H7D0) | 0.12 | 0.118
DOCK11_Q5JSL3_1110_VQDSNLEYSLSDEYCK (UniProt Q5JSL3) | 0.0641 | 0.252
DOK1_Q99704_224_CPSGPGTFTFQTAQGNDIFQAVETAIHR (UniProt Q99704) | -0.0751 | 0.0905
DYNC1H1_Q14204_2712_IQFVGACNPPTDPGRKPLSHR (UniProt Q14204) | -0.0552 | 0.27
DPP9_Q86TI2_225_RLTFCHQGLSNVLDDPK (UniProt Q86TI2) | 0.249 | -0.147
DOCK2_Q92608_1234_DLHLDCDNYTEAAYTLLLHTWLLK (UniProt Q92608) | 0.294 | 0.456
DOCK8_Q8NF50_361_VLQQGEIGDCAEPYTVIK (UniProt Q8NF50) | 0.0274 | 0.354
DOK3_Q7L591_133+144_LADCVSVLPADGESCPR (UniProt Q7L591) | -0.254 | -0.356
DOCK8_Q8NF50_846_NCLLASYVHYVFR (UniProt Q8NF50) | 0.0162 | 0.428
DPP8_Q6V1X1_286_YSGYWWCPK (UniProt Q6V1X1) | 0.111 | 0.217
DUSP19_Q8WTR2_188_NARPSICPNSGFMEQLR (UniProt Q8WTR2) | -0.0574 | -0.0443
DPH7_Q9BTV6_377_GASELPTPCHECR (UniProt Q9BTV6) | 0.0426 | -0.0466
DNMT3A_Q9Y6K1_818_LELQECLEHGR (UniProt Q9Y6K1) | -0.241 | 0.0362

Random excerpt: 2 entries already listed, in no set order.
Target | probe-labelled cysteine peptide fold change (10 µM) | probe-labelled cysteine peptide fold change (50 µM)
DPP9_Q86TI2_225_RLTFCHQGLSNVLDDPK (UniProt Q86TI2) | 0.249 | -0.147
DOCK5_Q9H7D0_627_DSFQIATLICSTK (UniProt Q9H7D0) | 0.12 | 0.118
